Source: patent US20220110924A1, “METHODS AND COMPOSITIONS FOR GENETIC MODULATION OF TUMOR MICROENVIRONMENTS” (HUYABIO International, LLC, priority 2020, published 2022)
At least one compound was matched to its structure with a doubt left.

Legend:
[1] = test system: MC38 tumors; experiment: MC38 syngeneic tumor model, tumor growth; format: in vivo, C57BL/6 mice; conditions: MC38 tumor-bearing mice; HBI-8000 50 mg/kg orally daily, Ab 10 mg/kg i.p. twice weekly
[2] = test system: RENCA tumors; experiment: RENCA syngeneic tumor model, tumor growth; format: in vivo; conditions: RENCA tumor-bearing mice
[3] = test system: A20 tumors; experiment: A20 syngeneic tumor model, tumor growth; format: in vivo, BALB/c mice; conditions: A20 tumor-bearing mice
[4] = test system: MC38 tumors; experiment: NanoString nCounter PanCancer Immune Profiling Panel gene expression; format: in vivo, C57BL/6 mice
Protocol: Gene expression studies were carried out using excised MC38 tumors (n=20 animals/treatment) isolated from syngeneic C57BL/6 mice treated for 7, 14, or 17 days with HBI-8000 (50 mg/kg, daily), anti-PD-1 (10 mg/kg, biweekly), or the combination of HBI-8000+anti-PD-1 (50 mg/kg, daily, 10 mg/kg, biweekly). At study termination, tumor samples from the treated mice were collected and fixed in formalin for 24 h and transferred to EtOH, followed by the preparation of formalin-fixed paraffin embedded blocks. Tumor sections (5-10 μm) were prepared from the formalin-fixed paraffin-embedded blocks, and total RNA was isolated from tissue scraped from 4 to 6 slides using the protocol recommended by NanoString Technologies (Seattle, Wash.). […]
Gene expression data were analyzed using nSolver software provided by NanoString Technologies, Inc. Raw data were normalized to the geometric mean values of the internal synthetic positive controls and geometric means of the housekeeping genes, as recommended by the manufacturer. […] The cell type score quantifies cell populations using marker genes for given cell types; by centering the mean at 0 for each cell type, immune cell type abundance can be compared on the same scale. […]

[5] = test system: MC38 tumors; experiment: model of PD-1 antibody failure or stable disease, second-line therapy; format: in vivo; conditions: second-line therapy in mice failing PD-1 Ab therapy
Protocol: To establish a model of PD-1 antibody failure or stable disease, 150 mice were initially treated biweekly for 3 weeks with first-line anti-PD-1 Ab (5 mg/kg, intraperitoneal administration).
Human cancer patients receiving ICI therapy often experience a transient response or stable disease, but eventually develop resistance and progress, a challenge to which major efforts are directed. […] To explore the effect of HBI-8000 plus ICI on acquired resistance, we developed a model based on the repeated observations that tumor-bearing mice treated initially (first-line) with single agent PD-1 Ab or PD-L1 Ab display […] patterns of growth: approximately 20% experience rapid progression, approximately 20% experience complete regression, and approximately 60% experience stable tumor growth (defined as 3 consecutive tumor volume measurements with no significant change) or slow progression (relative to rapid growth and progression), which somewhat approximates the clinical situation. Using the above model, we treated a large cohort of tumor-bearing mice with PD-1 Ab alone. Once they reached the criteria for stable disease or slow progression, they were randomized into 6 treatment arms as indicated in FIG. 13. We compared the effect of halting treatment (Vehicle), continuing to treat with PD-1 Ab, or continuing PD-1 Ab in combination with HBI-8000. […]

Nc1cc(F)ccc1NC(=O)c1ccc(CNC(=O)/C=C/c2cccnc2)cc1 [HBI-8000, N-(2-amino-4-fluorophenyl)-4-[[[(2E)-1-oxo-3-(3-pyridinyl)-2-propen-1-yl]amino]methyl]benzamide]
tumor growth or survival [1]: did not significantly affect tumor growth or survival | median tumor growth or survival; tumor growth and progression [2]: did not significantly affect either median tumor growth or survival | median tumor growth or survival; tumor growth and progression [3]: did not significantly affect either median tumor growth or survival | CD244/2B4 expression [4]: increased expression | CD276/B7-H3 expression [4]: increased expression | effect on tumor growth [5]: modestly active
